Assay results: article PMC11670450
Results are given in words; binding and its absence hold for the method and conditions named. In cells and extracts the contact can be indirect. A yes stands for co-enrichment or nearness to the bait. Other partners may have been found.

The chains behind the UniProt entries cited, without tags or fusion partners. Residues count along the entry.
UniProt P05106, residues 27-788: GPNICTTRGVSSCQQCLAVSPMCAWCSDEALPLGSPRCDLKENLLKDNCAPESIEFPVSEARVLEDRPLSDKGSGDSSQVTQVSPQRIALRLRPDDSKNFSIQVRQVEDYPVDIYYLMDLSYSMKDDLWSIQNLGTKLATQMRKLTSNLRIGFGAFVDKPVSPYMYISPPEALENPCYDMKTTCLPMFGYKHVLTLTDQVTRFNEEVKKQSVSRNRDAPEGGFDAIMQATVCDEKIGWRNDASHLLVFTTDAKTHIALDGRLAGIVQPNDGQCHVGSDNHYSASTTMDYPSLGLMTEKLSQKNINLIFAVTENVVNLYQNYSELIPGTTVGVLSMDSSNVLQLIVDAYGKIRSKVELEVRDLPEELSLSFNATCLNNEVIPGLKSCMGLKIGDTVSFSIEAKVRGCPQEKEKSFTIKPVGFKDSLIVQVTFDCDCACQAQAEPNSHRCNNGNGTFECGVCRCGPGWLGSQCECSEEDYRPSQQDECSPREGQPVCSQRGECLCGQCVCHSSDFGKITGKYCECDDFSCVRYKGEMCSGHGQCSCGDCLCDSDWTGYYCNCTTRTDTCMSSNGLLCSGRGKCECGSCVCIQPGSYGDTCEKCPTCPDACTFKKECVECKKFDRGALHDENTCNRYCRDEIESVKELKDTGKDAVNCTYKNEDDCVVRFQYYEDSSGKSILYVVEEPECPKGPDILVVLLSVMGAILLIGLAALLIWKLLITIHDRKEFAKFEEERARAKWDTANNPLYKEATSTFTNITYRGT

Target: Integrin beta-3 (human (endogenous in HTR-8/SVneo)) (UniProt P05106)
Assay: affinity purification with mass spectrometry; HTR-8/SVneo cell lysate incubated with anti-ITGB3 antibody or nonimmune IgG at 4 °C overnight, protein A/G beads, washes in TBS with 0.05% Tween-20, glycine pH 2.7 elution; SDS-PAGE, silver stain, in-gel digest of the enriched band, LC-MS/MS; proteins specific to the ITGB3 group, abundance threshold > 20

Row | binding | Binder
1 | binds | Keratin, type II cytoskeletal 80 (protein, UniProt Q6KB66 1-452) MACRSCVVGFSSLSSCEVTPVGSPRPGTSGWDSCRAPGPGFSSRSLTGCWSAGTISKVTVNPGLLVPLDVKLDPAVQQLKNQEKEEMKALNDKFASLIGKVQALEQRNQLLETRWSFLQGQDSAIFDLGHLYEEYQGRLQEELRKVSQERGQLEANLLQVLEKVEEFRIRYEDEISKRTDMEFTFVQLKKDLDAECLHRTELETKLKSLESFVELMKTIYEQELKDLAAQVKDVSVTVGMDSRCHIDLSGIVEEVKAQYDAVAARSLEEAEAYSRSQLEEQAARSAEYGSSLQSSRSEIADLNVRIQKLRSQILSVKSHCLKLEENIKTAEEQGELAFQDAKTKLAQLEAALQQAKQDMARQLRKYQELMNVKLALDIEIATYRKLVEGEEGRMDSPSATVVSAVQSRCKTAASRSGLSKAPSRKKKGSKGPVIKITEMSEKYFSQESEVSE
2 | binds | Keratin, type I cytoskeletal 27 (protein, UniProt Q7Z3Y8 1-459) MSVRFSSTSRRLGSCGGTGSVRLSSGGAGFGAGNTCGVPGIGSGFSCAFGGSSSAGGYGGGLGGGSASCAAFTGNEHGLLSGNEKVTMQNLNDRLASYLENVRALEEANADLEQKIKGWYEKFGPGSCRGLDHDYSRYFPIIDELKNQIISATTSNAHVVLQNDNARLTADDFRLKFENELALHQSVEADINGLRRVLDELTLCRTDLEIQLETLSEELAYLKKNHEEEMKALQCAAGGNVNVEMNAAPGVDLTVLLNNMRAEYEALAEQNRRDAEAWFNEKSASLQQQISDDAGATTSARNELIEMKRTLQTLEIELQSLLATKHSLECSLTETESNYCAQLAQIQAQIGALEEQLHQVRTETEGQKLEYEQLLDIKVHLEKEIETYCLLIDGEDGSCSKSKGYGGPGNQTKDSSKTTIVKTVVEEIDPRGKVLSSRVHTVEEKSTKVNNKNEQRVSS
3 | binds | Sodium- and chloride-dependent creatine transporter 1 (protein, UniProt P48029 1-635) MAKKSAENGIYSVSGDEKKGPLIAPGPDGAPAKGDGPVGLGTPGGRLAVPPRETWTRQMDFIMSCVGFAVGLGNVWRFPYLCYKNGGGVFLIPYVLIALVGGIPIFFLEISLGQFMKAGSINVWNICPLFKGLGYASMVIVFYCNTYYIMVLAWGFYYLVKSFTTTLPWATCGHTWNTPDCVEIFRHEDCANASLANLTCDQLADRRSPVIEFWENKVLRLSGGLEVPGALNWEVTLCLLACWVLVYFCVWKGVKSTGKIVYFTATFPYVVLVVLLVRGVLLPGALDGIIYYLKPDWSKLGSPQVWIDAGTQIFFSYAIGLGALTALGSYNRFNNNCYKDAIILALINSGTSFFAGFVVFSILGFMAAEQGVHISKVAESGPGLAFIAYPRAVTLMPVAPLWAALFFFMLLLLGLDSQFVGVEGFITGLLDLLPASYYFRFQREISVALCCALCFVIDLSMVTDGGMYVFQLFDYYSASGTTLLWQAFWECVVVAWVYGADRFMDDIACMIGYRPCPWMKWCWSFFTPLVCMGIFIFNVVYYEPLVYNNTYVYPWWGEAMGWAFALSSMLCVPLHLLGCLLRAKGTMAERWQHLTQPIWGLHHLEYRAQDADVRGLTTLTPVSESSKVVVVESVM
